The assay can be described thus: qHTS Assay for Lipid Storage Modulators in Drosophila S3 Cells.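 On cell number change: cells counted by Cell Tracker Red CMTPX staining in the red channel.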 The conditions noted are these: BODIPY lipid droplet fluorescence, 18-24 h; for cell number change: measured here: cell count max response, cells fed with added oleic acid. A digest of the protocol:
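Drosophila S3 cells loaded with oleic acid (400 uM, as added) and compounds at several concentrations; lipid droplets imaged by 488-nm laser-scanning cytometry, 500–530 nm intensity and object ratio to cell channel. Percent activity normalized to 20 uM Triacsin C.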

[1] abbreviates: measured here: cell number channel AC50, cells fed with added oleic acid.
The mark [2] stands for this setting: measured here: lipid fluorescence (Fed channel) AC50, cells fed with added oleic acid.

The values below come from PubChem BioAssay AID2685 (National Center for Advancing Translational Sciences (NCATS), 2010).

This is one part of the list. Further columns of the screen follow, without active or inactive calls. Most of these compounds were active or inconclusive in the main read-out, so they are no random draw. The note in brackets gives the kind of curve behind each potency; many fits are weak.

As to `Cc1c(CC(=O)O)c(=O)oc2c(C)c3occ(-c4ccc(Br)cc4)c3cc12`, the cell number change is 34.7%. In addition, the half-maximal activity concentration (AC50) under setting [1] was 25.9 µM [rising, single point]. Further, the AC50 under setting [2] was 4.11 µM [falling, partial curve].
As to `CS(=O)(=O)C1=NSC2=NC(=O)/C(=C\c3ccc(OC(=O)c4ccco4)c(Br)c3)C(=N)N21`, the half-maximal activity concentration (AC50) under setting [2] was 6.51 µM [falling, single point].
Take `CC(C)(C)c1ccc2c(c1)OC(C(=O)N/N=C\c1ccc(-c3cccc(C(=O)O)c3)o1)CO2` (configuration not stated): the cell number change is -27.1%. Under setting [1], the AC50 is 0.731 µM [falling, full curve]. In addition, the AC50 under setting [2] is 0.82 µM [falling, full curve].
